Patent publication US9079048B2 (Lipotec, S.A., priority 2005, dated 2015)

Experiment: general procedure: Fmoc solid-phase peptide synthesis; 2-chlorotrityl resin
Details: whole synthesis, gradient 20 to 50% MeCN (+0.07% TFA) in H2O (+0.1% TFA) in 30 minutes, scale 8.8 mmol

Substance: H-Tyr-Gly-Gly-Phe-Leu-OH
- crude HPLC purity: greater than 98%
